# Hit rate of the full screen: of about 580,000 compounds, about 6,100 (1.1%) were called active. Inconclusive results, whose numbers are uncertain, are shown with a selection of clear calls. Calls follow the shape of the dose curve; as a rule, active = well fitted inhibition curve with a large enough effect; inconclusive = small, poorly fitted or top-dose-only effect, or another doubt; inactive = no such curve, though single readings can be large or run the other way. Potencies of inconclusive entries are doubtful fits and often do not repeat.
# Sequences of proteins named here, by UniProt entry; tags and fusion partners are left off. A change or cut given only in a name is not applied to a line headed by its entry.
# UniProt P18054: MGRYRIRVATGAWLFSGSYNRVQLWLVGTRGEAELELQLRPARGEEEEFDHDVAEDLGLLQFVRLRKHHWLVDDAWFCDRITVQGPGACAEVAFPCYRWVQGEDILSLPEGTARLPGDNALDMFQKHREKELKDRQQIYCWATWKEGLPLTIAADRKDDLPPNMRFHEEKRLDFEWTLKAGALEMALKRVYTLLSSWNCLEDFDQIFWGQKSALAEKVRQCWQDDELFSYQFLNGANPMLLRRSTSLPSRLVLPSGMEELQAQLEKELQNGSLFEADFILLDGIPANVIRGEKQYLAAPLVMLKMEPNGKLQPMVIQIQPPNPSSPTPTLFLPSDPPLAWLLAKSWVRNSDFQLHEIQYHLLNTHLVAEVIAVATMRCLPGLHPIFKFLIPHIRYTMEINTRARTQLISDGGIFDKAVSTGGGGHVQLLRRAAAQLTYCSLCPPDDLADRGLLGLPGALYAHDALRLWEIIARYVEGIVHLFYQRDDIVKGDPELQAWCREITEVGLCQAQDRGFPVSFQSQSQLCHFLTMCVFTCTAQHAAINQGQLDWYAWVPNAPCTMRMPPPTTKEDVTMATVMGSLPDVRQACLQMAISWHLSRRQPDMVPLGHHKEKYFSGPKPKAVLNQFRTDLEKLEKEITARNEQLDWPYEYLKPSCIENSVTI
# Target: Polyunsaturated fatty acid lipoxygenase ALOX12 (Homo sapiens) (UniProt P18054)
# Assay: Primary qHTS assay for inhibitors of human arachidonate 12S-lipoxygenase (ALOX12): Round 2
# Conditions: purified 12hLO, xylenol orange hydroperoxide absorbance; activity change, negative = inhibition: at 108 µM (top of the series) unless noted
# Outline: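 Hydroperoxide product was detected by ferrous iron/xylenol orange as the 573 to 405 nm absorbance ratio. Arachidonic acid at 40 uM (final) was turned over for 30 min at room temperature by 150 nM human 12hLO, pH 7.0 Hepes buffer, after 15 min compound preincubation.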
# % is scaled to controls: 0 for no effect and ±100 for the full control effect; potency is read from the fitted curve at half-maximal effect.
Compound,Potency,"activity change, negative = inhibition"
CC(=O)OCCCNc1cc(SCc2ccco2)c2nonc2c1[N+](=O)[O-],"inconclusive: 44.7 µM [inhibitor, partial curve]",–
Cc1ccc(S(=O)(=O)N2CCN(C(=O)C3COc4ccccc4O3)CC2)cc1C (stereo not drawn),"inconclusive: 44.7 µM [inhibitor, partial curve, poor fit]",–
COc1cccc(CC(=O)N2CCC3(CC2)OC(=O)N(Cc2csc(C)n2)C3(C)c2ccccc2)c1 (stereo not drawn),"inconclusive: 31.6 µM [inhibitor, full curve, poor fit]",–
O=C(O)Cc1sc(-c2cccnc2)nc1-c1ccc(Br)cc1,active: 35.5 µM,–
COC(=O)c1nn(-c2ccc3c(c2)OCO3)cc1O,–,inactive: -14.5%
OCCN(C=NC1=NN(c2cccc(C(F)(F)F)c2)CC1)CCO,"inconclusive: 44.7 µM [inhibitor, partial curve, poor fit]",–
CC(C)(C)S(=O)N1Cc2cc(C(=O)O)nc(-c3cccc(-c4cc5ccccc5o4)c3)c2[C@H]1CCO (stereo partly drawn),"inconclusive: 44.7 µM [inhibitor, partial curve, poor fit]",–
Cc1ncc2c(c1CNC(=O)c1ccccc1-c1nn[nH]n1)CCNC2,"inconclusive: 4.47 µM [inhibitor, full curve, poor fit]",–
COc1ccc(NC(=O)c2c(NCc3cccs3)sc3c2CCCC3)c(OC)c1,–,inactive: -9.6%
COc1cccc(NC(=O)CN2C(=O)NC3(CCCc4ccccc43)C2=O)c1 (stereo not drawn),"inconclusive: 112 µM [inhibitor, single point]",–
O=Cc1ccc(-c2ccc(Br)cc2Cl)o1,–,inactive: 39.8%
Cn1c(=O)cc(SCC(=O)NCCC2=CCCCC2)c2cc(Cl)ccc21,"inconclusive: 12.6 µM [inhibitor, full curve, poor fit]",–
CCOP(=O)(OCC)c1nc(-c2cccc3ccccc23)oc1NCc1ccc(OC)cc1,"inconclusive: 79.4 µM [inhibitor, partial curve, poor fit]",–
FC(F)(F)C(F)(F)C(F)(F)c1nc2nc(Cl)c(Cl)nc2[nH]1,–,inactive: -12.5%
O=C(Cc1ccc(F)cc1)N1CCC2(C1)C(=O)N(CCc1ccccc1)c1ccccc12 (stereo not drawn),"inconclusive: 70.8 µM [inhibitor, partial curve]",–
O=C(NC1CCCCCC1)c1cccs1,–,inactive: 13.7%
CCCOc1cc(C)c2c(c1C)C[C@H](C(C)C(=O)N1CCOCC1)CC2 (stereo partly drawn),"inconclusive: 25.1 µM [inhibitor, full curve, poor fit]",–
Cc1ccc(CNC(=O)CN2C(=O)CSc3c2c(C)nn3-c2ccccc2)cc1,–,inactive: -21.7%
NC(Cc1ccc(C(F)(F)F)cc1)c1csc(Nc2ccc(C(=O)c3ccccc3)cc2)n1 (stereo not drawn),"inconclusive: 89.1 µM [inhibitor, partial curve, poor fit]",–
CCOc1cc(/C=C2/NC(=O)N(CC(=O)Nc3cccc(C)c3)C2=O)ccc1O,"inconclusive: 44.7 µM [inhibitor, partial curve, poor fit]",–
N=C1/C(=C\c2ccc(Br)o2)C(=O)N=C2SC(CC(=O)N3CCCCC3)=NN12,–,inactive: -5.31%
CC(C)(C)NC(=O)C(=O)NNC(=O)c1cccc(Br)c1,–,inactive: 0.129%
COc1ccc(S(=O)(=O)N[C@H]2C[C@@H](c3nc(-c4ccc(C)cc4)no3)N(C)C2)cc1,"inconclusive: 25.1 µM [inhibitor, full curve]",–

Compound,Potency,"activity change, negative = inhibition"
CC(C)c1ccc(Nc2nc(Cl)nc(Cl)n2)cc1,"inconclusive: 2.51 µM [inhibitor, full curve]",–
COc1ccc(C2NC(=S)N3C(c4ccc(OC)cc4)NC(=S)N23)cc1 (stereo not drawn),"inconclusive: 31.6 µM [inhibitor, full curve, poor fit]",–
N#CC1=C(SCC(=O)NC23CC4CC(CC(C4)C2)C3)NC(=O)C(C#N)C12CCCCC2 (stereo not drawn),"inconclusive: 12.6 µM [inhibitor, full curve]",–
CN1CCN(CCNC(=O)c2ccc(CN3CC(=O)N4CCCCC4C3=O)cc2)CC1 (stereo not drawn),–,inactive: -4.93%
COC(=O)CCCCCCCCCC[N+]1(C)CCCCC1,"inconclusive: 112 µM [inhibitor, partial curve, poor fit]",–
NC(=NCc1ccc2c(c1)OCO2)NC(=O)c1ccccc1,–,inactive: -7.76%
Cc1ccn2c(Nc3ccccc3)c(-c3ccccn3)nc2c1,–,inactive: -2.23%
NC(=O)c1cnc(Cc2c[nH]c3ccccc23)c(I)c1,"inconclusive: 50.1 µM [inhibitor, partial curve, poor fit]",–
Fc1ccc(-c2nnn(Cc3cc4c(cc3Br)OCO4)n2)cc1,–,inactive: -19.6%
Cc1ccc(NC(=O)Cn2cc(S(=O)(=O)Cc3cccc(Cl)c3)c3ccccc32)cc1C,"inconclusive: 158 µM [inhibitor, partial curve, poor fit]",–
COc1ccc(Cn2cnc3c([N+](=O)[O-])c(C)c(C)cc32)cc1,–,inconclusive: -38.4% [inhibitor]
CSc1c(CC(=O)Nc2ccccc2Cl)n(Cc2ccccc2)c2ccccc12,"inconclusive: 20 µM [inhibitor, partial curve, poor fit]",–
COc1ccc(C2=C(C)C(=NCCCN3CCN(c4cc(Cl)ccc4C)CC3)NS2(=O)=O)cc1,"inconclusive: 15.8 µM [inhibitor, full curve, poor fit]",–
O=C(Nc1ccc2c(c1)OCCO2)C1c2ccccc2OCC(=O)N1C1CC1 (stereo not drawn),"inconclusive: 126 µM [inhibitor, single point]",–
CCCCCC/C(C)=C1/SC(=S)NC1=O,"inconclusive: 31.6 µM [inhibitor, partial curve]",–
Cc1ccc(S(=O)(=O)Nc2nc3ccccc3nc2NCC2CCCO2)cc1 (stereo not drawn),"inconclusive: 50.1 µM [inhibitor, partial curve]",–
CCn1cnc2c1c(=O)n(CC(=O)Nc1c(C)cc(C)cc1C)c(=O)n2Cc1ccccc1,–,inactive: -14.4%
COc1ccc(S(=O)(=O)Nc2cc(Sc3ncn[nH]3)c(O)c3ccccc23)cc1,"inconclusive: 2.82 µM [inhibitor, full curve, poor fit]",–
CCCCNc1nc(-c2ccc3c(c2)CC(=O)N3)cs1,active: 31.6 µM,–
Cc1ccc(C(=O)NC(=S)N2CCN(c3ccccc3F)CC2)cc1,"inconclusive: 25.1 µM [inhibitor, partial curve, poor fit]",–
CC1CCN(c2nc3ccccc3nc2SCC(=O)N2CCCCCC2)CC1,–,inactive: 30.4%
Cc1cnc(NC(=O)CCCc2nc3ccccc3s2)s1,"inconclusive: 44.7 µM [inhibitor, single point]",–
CCCCN(C(=O)c1cccc(-c2ccc(OC(C)=O)cc2)c1)c1c(N)n(CCC)c(=O)[nH]c1=O,"inconclusive: 112 µM [inhibitor, single point]",–

Compound,Potency,"activity change, negative = inhibition"
CN1/C(=C\C(=O)c2cccs2)Sc2ccccc21,"inconclusive: 44.7 µM [inhibitor, single point]",–
Cn1c(-c2ccccc2)cnc1NCc1ccccc1O,"inconclusive: 2.51 µM [inhibitor, full curve]",–
CCC(=O)NC(=S)Nc1ccc(NC(=O)c2ccc(C)c([N+](=O)[O-])c2)cc1,–,inactive: -14.9%
Cc1c(C#N)c(N)nc2c3c(sc12)NC(=O)CC3c1ccccc1 (stereo not drawn),"inconclusive: 56.2 µM [inhibitor, partial curve, poor fit]",–
COc1ccc(C(=O)/C=C(\N)C(F)(F)F)c(O)c1,active: 39.8 µM,–
Cc1nc2nc(SCC(=O)N3CCOCC3)nn2c(C)c1Cc1c(F)cccc1Cl,–,inactive: 0.824%
CCC(=O)Nc1ccc2oc(-c3cccc4c(Cl)cccc34)nc2c1,"inconclusive: 141 µM [inhibitor, single point]",–
CCCCN(CC)CCCNC(=S)Nc1ccc2nc3n(c(=O)c2c1)CCCCC3,"inconclusive: 100 µM [inhibitor, partial curve, poor fit]",–
Cc1noc(-c2cccs2)c1C(=O)NCc1ccco1,–,inactive: 6.91%
CCCCc1ccc(NC(=S)NN2CCN(C)CC2)cc1,"inconclusive: 44.7 µM [inhibitor, partial curve, poor fit]",–
CCc1cccc(NC(=O)C2CCCC2)c1,–,inactive: -1.22%
Cc1ccc(Cn2c(C)cc3c(c2=O)C(c2cccs2)C(C#N)=C(N)O3)cc1 (stereo not drawn),"inconclusive: 44.7 µM [inhibitor, partial curve, poor fit]",–
Fc1ccccc1CSCCNC(=S)Nc1ccccc1,active: 35.5 µM,–
Cc1ccc(N=C2N=C(N)c3ccccc32)cc1C,"inconclusive: 44.7 µM [inhibitor, partial curve, poor fit]",–
COc1cc(NC(=S)NC(=O)CCc2ccccc2)cc(OC)c1,"inconclusive: 50.1 µM [inhibitor, partial curve, poor fit]",–
Cc1ccc(CN(C)C(=O)CSc2nc3ccccc3o2)c(C)c1,–,inactive: -2.36%
CCOC(=O)C1CCCN(c2c(C(=O)c3ccc(OCC)cc3)cnc3ccccc23)C1 (stereo not drawn),"inconclusive: 44.7 µM [inhibitor, partial curve, poor fit]",–
Cc1ccc(C(O)c2ncc(-c3ccc(Cl)cc3)[nH]2)cc1F (stereo not drawn),"inconclusive: 56.2 µM [inhibitor, partial curve, poor fit]",–
C#CCNc1ccc([N+](=O)[O-])cc1,"inconclusive: 44.7 µM [inhibitor, partial curve, poor fit]",–
Oc1ccc(Cl)cc1C1=NNC(c2cccs2)C1 (stereo not drawn),"inconclusive: 50.1 µM [inhibitor, partial curve, poor fit]",–
N#CC1=C(C2CC2)CC(c2ccccc2)C(C#N)=C1N (stereo not drawn),"inconclusive: 31.6 µM [inhibitor, partial curve, poor fit]",–
Fc1ccc(CNC(=S)NCc2ccc(Cl)c(Cl)c2)cc1,active: 31.6 µM,–

# Complete entries as entered above.
# Cc1noc(-c2cccs2)c1C(=O)NCc1ccco1 is listed as activity change, negative = inhibition: inactive: 6.91%
# Fc1ccc(CNC(=S)NCc2ccc(Cl)c(Cl)c2)cc1 is listed as Potency: active: 31.6 µM
# CCc1cccc(NC(=O)C2CCCC2)c1 is listed as activity change, negative = inhibition: inactive: -1.22%
# C#CCNc1ccc([N+](=O)[O-])cc1 is listed as Potency: inconclusive: 44.7 µM [inhibitor, partial curve, poor fit]
